For test [1], the target named is T1, GST-Brk fusion protein, Brk(441-589) (Drosophila) (UniProt Q9XTN4).
T1 sequence: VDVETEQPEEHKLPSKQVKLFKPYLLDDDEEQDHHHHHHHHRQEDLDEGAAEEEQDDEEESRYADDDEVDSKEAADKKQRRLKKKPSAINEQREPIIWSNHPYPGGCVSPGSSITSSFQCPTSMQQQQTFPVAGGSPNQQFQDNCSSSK
The test can be described thus: pull-down; GST-Brk(441-589) or GST immobilised on glutathione beads; in vitro translated [35S]-Gro variants; PBS with 340 mM NaCl, 1 mM EDTA, 0.1% NP-40, 10% BSA; washes PBS with 290 mM NaCl; autoradiography; only the target purified.

In test [2] the target is T2, His-tagged Gro N-terminal region, wild type (His-GroN^WT), Gro (2-194) (Drosophila) (UniProt P16371).
T2 sequence: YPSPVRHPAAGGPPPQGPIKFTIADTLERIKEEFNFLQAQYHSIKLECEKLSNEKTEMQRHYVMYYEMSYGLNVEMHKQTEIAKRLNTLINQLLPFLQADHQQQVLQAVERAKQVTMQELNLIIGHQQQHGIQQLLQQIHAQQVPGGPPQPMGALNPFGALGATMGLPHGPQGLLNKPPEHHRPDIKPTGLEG
In words: pull-down; untagged Gro forms cotranslated in vitro with His-GroN in the presence of [35S]-methionine; His-GroN immobilised on Ni-NTA beads overnight at 4°C; 25 mM HEPES pH 7.6, 450 mM NaCl, 10 mM imidazole, 0.1% Tween 20, 1 mM DTT; SDS-PAGE and autoradiography.

One substance from PMC3272004 can be followed below.

No constants are given. Whether binding was seen depends on the method and setting. In cells and extracts the contact can be indirect. Some entries that bind do so weakly or less than the wild type. Sequences can lack the tags named with a protein.

Consider “Groucho, wild-type full-length (Gro^WT), untagged (from UniProt P16371 1-730)”, for which the binding entry in test [1] and in test [2] was “binds” in each case.
